Measured values reported in PubChem BioAssay AID2685 (National Center for Advancing Translational Sciences (NCATS), 2010).
Among all 320,000 compounds or so, about 2,100 (0.66%) were called active. Calls come from the whole dose curve; as a rule, active = well fitted inhibition curve with a large enough effect in the signal ratio, with a control signal flat (not every such curve was filed as active); inconclusive = small, poorly fitted or top-dose-only effect, or effect the other way, or a change in a side signal; inactive = flat fitted curve, though single readings scatter; the % refers to the signal ratio. Inconclusive results, whose numbers are uncertain, are shown. Potencies of inconclusive entries are doubtful fits and often do not repeat.

Test: qHTS Assay for Lipid Storage Modulators in Drosophila S3 Cells
Settings: BODIPY lipid droplet fluorescence, 18-24 h, cells fed with added oleic acid; lipid storage change, negative = inhibition: at 46.1 µM (top of the series) unless noted
Summary of the method: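 Laser-scanning cytometry quantifies lipid droplet accumulation (500–530 nm total intensity; droplet/cell object ratio) in oleic acid-fed (400 uM added) Drosophila S3 cells treated with a concentration series. 20 uM Triacsin C defined 100% inhibition.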
% is set by controls: 0 for no effect and ±100 for the full control effect; potency is the fitted concentration of half-maximal effect.

Row | SMILES | Potency | lipid storage change, negative = inhibition
1 | O=C(/C=C/c1cccc2ccccc12)NCCC1=CCCCC1 | inconclusive: 0.0052 µM [falling, full curve, poor fit] | 
2 | COc1ccc(-c2ccc(=O)n(CC(=O)Nc3cccc(O)c3)n2)cc1OC |  | inconclusive: 22.2%
3 | Cc1nn(C(C)C(=O)NC2CCCCCC2)c(=O)c2nn(-c3ccccc3)c(C)c12 (centres undefined) |  | inconclusive: 129%
4 | COc1cc(C(=O)NCC(=O)N/N=C/c2ccc(-c3cccc([N+](=O)[O-])c3)o2)cc(OC)c1OC |  | inconclusive: -6.62%
5 | CCCn1c(N)c(N(CCOC)C(=O)COC(=O)CSc2cc(C)c3ccccc3n2)c(=O)[nH]c1=O | inconclusive: 2.31 µM [activator, partial curve] | 
6 | CC(=O)c1cnc2sccn2c1=O |  | inconclusive: -28.5%
7 | CC1(C)NC(=O)N(CC(=O)Nc2cc(S(=O)(=O)N3CCOCC3)ccc2N2CCOCC2)C1=O |  | inconclusive: 40.4%
8 | CN1C(=O)C(O)(C2COC(C)(C)CC2=O)c2cc(Br)ccc21 (centres undefined) | inconclusive: 6.51 µM [falling, single point] | 
9 | O=c1c2ccccc2nnn1CSc1ccccc1F |  | inconclusive: 13.6%
10 | Cc1cc([N+](=O)[O-])nn1CC(=O)NCCCN1CCOCC1 |  | inconclusive: 92.1%
11 | COc1ccc(OC)c(NC(=O)C2C3C=CC(C3)C2C(=O)NCc2cccnc2)c1 (centres undefined) |  | inconclusive: 6.28%
12 | COc1cc(/C=N/NC(=O)C(=O)NCc2ccco2)cc(Br)c1O |  | inconclusive: 2.96%
13 | CN(C)c1cc[n+](CC(=O)N2c3ccccc3Sc3ccccc32)cc1 | inconclusive: 6.51 µM [cytotoxic, single point] | 
14 | CCCCC1CCC(C(=O)Nc2ccc(N3CCOCC3)cc2N2CCOCC2)CC1 (centres undefined) | inconclusive: 29.1 µM [falling, single point] | 
15 | COC(=O)c1[nH]c2ccccc2c1NC(=O)CN1CCC(C(N)=O)(N2CCCCC2)CC1 |  | inconclusive: 8.87%
16 | O=C(COC(=O)c1ccc(N2CCCC2=O)cc1)Nc1ccccc1 | inconclusive: 0.0231 µM [falling, full curve, poor fit] | 
17 | COc1ccc([C@H]2CC(=O)C=C(c3ccccc3)C2)cc1 | inconclusive: 7.31 µM [activator, partial curve, poor fit] | 
18 | CCOC(=O)CC1(NC(=O)c2cc(COc3cccc(OC)c3)on2)CCCCC1 | inconclusive: 4.61 µM [falling, single point] | 
19 | COc1ccc(CN2CCN(Cc3ccc4cc(F)ccc4n3)CC2CCO)c(C)c1C (centres undefined) | inconclusive: 25.9 µM [activator, single point] | 
20 | Cc1ccc(CCNC(=O)CC2Oc3ccc(C)cc3NC2=O)cc1 (centres undefined) |  | inconclusive: 20.6%
21 | COc1ccc(CCNC(=O)COc2ncnc3ccccc23)cc1 | inconclusive: 4.11 µM [falling, partial curve, poor fit] | 
22 | Cc1nn(-c2cc(C)c3ccccc3n2)c2c1C1C(C2)C1(C)C (centres undefined) |  | inconclusive: -10.8%
23 | Cc1cccc(NCCC(=O)c2ccc(Br)cc2)c1 |  | inconclusive: 453%
24 | CCN(C(C)=O)c1nc(CCl)cs1 |  | inconclusive: -11.8%
25 | O=C(c1ccccc1)N1CCN(C(=S)NCc2ccco2)CC1 | inconclusive: 29.1 µM [rising, single point] | 

Random excerpt: 4 compounds from above
Row | SMILES | Potency | lipid storage change, negative = inhibition
24 | CCN(C(C)=O)c1nc(CCl)cs1 |  | inconclusive: -11.8%
1 | O=C(/C=C/c1cccc2ccccc12)NCCC1=CCCCC1 | inconclusive: 0.0052 µM [falling, full curve, poor fit] | 
4 | COc1cc(C(=O)NCC(=O)N/N=C/c2ccc(-c3cccc([N+](=O)[O-])c3)o2)cc(OC)c1OC |  | inconclusive: -6.62%
22 | Cc1nn(-c2cc(C)c3ccccc3n2)c2c1C1C(C2)C1(C)C (centres undefined) |  | inconclusive: -10.8%

(more compounds)

Row | SMILES | Potency | lipid storage change, negative = inhibition
26 | CC1CC(C)CN(C(=O)c2ccc(CSc3nc4ccncc4[nH]3)cc2)C1 (centres undefined) | inconclusive: 18.4 µM [activator, single point] | 
27 | OCCNCc1cc(Br)ccc1OCc1ccc(Cl)cc1Cl | inconclusive: 29.1 µM [cytotoxic, single point] | 
28 | CCCOc1ccc(C2=CSC3=NCCN23)cc1[N+](=O)[O-] |  | inconclusive: 20.2%
29 | CCc1cc2c(-c3ccccc3)cc(=O)oc2c(CN2CCOCC2)c1O |  | inconclusive: 4.08%
30 | Nc1nc2ccc(C(=O)N3CCCCC3)cc2s1 | inconclusive: 4.11 µM [falling, partial curve, poor fit] | 
31 | CCOC(=O)N1CN(C(=O)OCC)CN(C(=O)OCC)C1 |  | inconclusive: 4.72%
32 | CCc1ccc(CN(C)Cc2nc(COc3ccccc3)no2)nc1 |  | inconclusive: -2.43%
33 | CCOc1ccc(NC(=O)Cn2nnc(C(=O)NCc3ccc4c(c3)OCO4)c2N)cc1 |  | inconclusive: 20.5%
34 | N#CCOc1coc(CN2CCN(c3cccc(Cl)c3)CC2)cc1=O |  | inconclusive: 269%
35 | Cc1cccc(N2C(=O)SC(N(C)c3ccccc3)C2=O)c1 (centres undefined) |  | inconclusive: -63.8%
36 | O=C(CC1C(=O)NCCN1C(=O)c1ccc(F)cc1)OCc1ccccc1 (centres undefined) |  | inconclusive: 8.82%
37 | FC(F)(F)c1ccc(Nc2nnnc3ccccc23)cc1 |  | inconclusive: 15.4%
38 | COc1cccc(OC)c1OCCOc1ccc(C(=O)c2ccccc2)cc1 |  | inconclusive: -72%
39 | COc1cc(-c2c(C#N)c(N)nc(SCc3ccncc3)c2C#N)cc(OC)c1OC | inconclusive: 3.26 µM [activator, single point] | 
40 | CC(C)(C)N=C(NS(=O)(=O)c1cccs1)c1ccccc1 |  | inconclusive: 121%
41 | COc1cccc(NS(=O)(=O)c2cc3c(cc2C)N(C(C)=O)CCO3)c1 |  | inconclusive: -35.4%
42 | Cc1cc(C)cc(NC(=O)c2cnn(-c3ccccc3)c2C2CCNCC2)c1 |  | inconclusive: -27.6%
43 | COCc1[nH]nc2c1C1(CCSCC1)C(C#N)=C(N)O2 |  | inconclusive: 5.78%
44 | COc1ccc(NC(=O)C(Cc2ccccc2)NC(=O)c2ccco2)cc1OC (centres undefined) |  | inconclusive: 18.1%
45 | O=C(COc1ccccc1F)N1CCc2ccccc2C1 |  | inconclusive: -4.73%
46 | CC(C)(C)C(=O)Nc1nnc(SCc2ccc(F)cc2)s1 |  | inconclusive: -8.55%
47 | Cc1c(Cl)cccc1NC(=O)Cn1c(CCC(=O)O)ccc1-c1ccc(Cl)cc1 | inconclusive: 0.651 µM [falling, full curve] | 
48 | COC(=O)c1ccc(CN2CCC(CO)(CCOc3ccccc3)CC2)cc1 | inconclusive: 0.731 µM [activator, full curve] | 
49 | O=C(Nc1ncc(C(F)(F)F)cc1Cl)C1COc2ccccc2O1 (centres undefined) | inconclusive: 2.06 µM [falling, partial curve, poor fit] | 
